Laboratory results as given in the supplement of paper PMC10077471.
Over roughly 1,900 compounds, “excess over highest single agent (ExcessHSA) synergy score, 6x6 matrix” has its median near -83; the lowest 2% begin near -370. This is one part of the list.

These molecules were tested on NCI-H446 (assay: excess over highest single agent (ExcessHSA) synergy score, 6x6 matrix; higher = less synergy (more negative = stronger synergy)). Details: 72 h; CellTiter-Glo viability.

| Structure (SMILES) | excess over highest single agent |
| --- | --- |
| Cn1cc(C2=C(c3c4n(c5ccccc35)CCC(CN)C4)C(=O)NC2=O)c2ccccc21 (configuration not stated) + Cc1sc2c(c1C)C(c1ccc(Cl)cc1)=N[C@@H](CC(=O)OC(C)(C)C)c1nnc(C)n1-2 [NCGC00250412-19] | -42.8 |
| CCC[C@@H](C=O)NC(=O)[C@H](CC(C)C)NC(=O)[C@H](CC(C)C)NC(=O)OCc1ccccc1 + Cc1sc2c(c1C)C(c1ccc(Cl)cc1)=N[C@@H](CC(=O)OC(C)(C)C)c1nnc(C)n1-2 [NCGC00250412-19] | -225 |
| Cc1nnc(C(C)C)n1[C@H]1C[C@H]2CC[C@@H](C1)N2CC[C@H](NC(=O)C1CCC(F)(F)CC1)c1ccccc1 + Cc1sc2c(c1C)C(c1ccc(Cl)cc1)=N[C@@H](CC(=O)OC(C)(C)C)c1nnc(C)n1-2 [NCGC00250412-19] | -88.4 |
| Cc1ccc2c(=O)c3cccc(CC(=O)O)c3oc2c1C + Cc1sc2c(c1C)C(c1ccc(Cl)cc1)=N[C@@H](CC(=O)OC(C)(C)C)c1nnc(C)n1-2 [NCGC00250412-19] | -18.2 |
| C=C1/C(=C\C=C2/CCC[C@]3(C)[C@@H]([C@H](C)/C=C/[C@H](C)C(C)C)CC[C@@H]23)C[C@@H](O)C[C@@H]1O + Cc1sc2c(c1C)C(c1ccc(Cl)cc1)=N[C@@H](CC(=O)OC(C)(C)C)c1nnc(C)n1-2 [NCGC00250412-19] | 186 |
| Cc1nc(-c2ccc(OCC(C)C)c(C#N)c2)sc1C(=O)O + Cc1sc2c(c1C)C(c1ccc(Cl)cc1)=N[C@@H](CC(=O)OC(C)(C)C)c1nnc(C)n1-2 [NCGC00250412-19] | -14 |
| CC(C(=O)O)c1ccc2c(c1)CC(=O)c1ccccc1S2 (configuration not stated) + Cc1sc2c(c1C)C(c1ccc(Cl)cc1)=N[C@@H](CC(=O)OC(C)(C)C)c1nnc(C)n1-2 [NCGC00250412-19] | 146 |
| Oc1cc2c(cc1O)[C@@H]1c3ccc(O)c(O)c3OC[C@]1(O)C2 + Cc1sc2c(c1C)C(c1ccc(Cl)cc1)=N[C@@H](CC(=O)OC(C)(C)C)c1nnc(C)n1-2 [NCGC00250412-19] | -67.2 |
| CC(=O)[C@H]1CC[C@H]2[C@@H]3CC=C4C[C@@H](O)CC[C@]4(C)[C@H]3CC[C@]12C + Cc1sc2c(c1C)C(c1ccc(Cl)cc1)=N[C@@H](CC(=O)OC(C)(C)C)c1nnc(C)n1-2 [NCGC00250412-19] | -78.5 |
| COc1ccc(CC2c3cc(OC)c(OC)cc3CC[N+]2(C)CCC(=O)OCCCCCOC(=O)CC[N+]2(C)CCc3cc(OC)c(OC)cc3C2Cc2ccc(OC)c(OC)c2)cc1OC (configuration not stated) + Cc1sc2c(c1C)C(c1ccc(Cl)cc1)=N[C@@H](CC(=O)OC(C)(C)C)c1nnc(C)n1-2 [NCGC00250412-19] | -227 |
| CN(C)c1ccc(C(=C2C=CC(=[N+](C)C)C=C2)c2ccc(N(C)C)cc2)cc1 + Cc1sc2c(c1C)C(c1ccc(Cl)cc1)=N[C@@H](CC(=O)OC(C)(C)C)c1nnc(C)n1-2 [NCGC00250412-19] | -106 |
| CCN1CCN(Cc2ccc(-c3cc4c(N[C@H](C)c5ccccc5)ncnc4[nH]3)cc2)CC1 + Cc1sc2c(c1C)C(c1ccc(Cl)cc1)=N[C@@H](CC(=O)OC(C)(C)C)c1nnc(C)n1-2 [NCGC00250412-19] | 27.6 |
| CCOC(=O)c1c(CSc2ccccc2)n(C)c2cc(Br)c(O)c(CN(C)C)c12 + Cc1sc2c(c1C)C(c1ccc(Cl)cc1)=N[C@@H](CC(=O)OC(C)(C)C)c1nnc(C)n1-2 [NCGC00250412-19] | -113 |
| Cc1ccn(-c2ccc(-c3ncco3)cc2)c(=O)c1-c1ccc2nc(N)ncc2c1 + Cc1sc2c(c1C)C(c1ccc(Cl)cc1)=N[C@@H](CC(=O)OC(C)(C)C)c1nnc(C)n1-2 [NCGC00250412-19] | -189 |
| O=C1c2ccccc2-[n+]2ccc3c([nH]c4ccccc43)c21 + Cc1sc2c(c1C)C(c1ccc(Cl)cc1)=N[C@@H](CC(=O)OC(C)(C)C)c1nnc(C)n1-2 [NCGC00250412-19] | -179 |
| CCN(CCO)CCCC(C)Nc1ccnc2cc(Cl)ccc12 (configuration not stated) + Cc1sc2c(c1C)C(c1ccc(Cl)cc1)=N[C@@H](CC(=O)OC(C)(C)C)c1nnc(C)n1-2 [NCGC00250412-19] | -151 |
| Cc1nc(Nc2ncc(C(=O)Nc3c(C)cccc3Cl)s2)cc(N2CCN(CCO)CC2)n1 + Cc1sc2c(c1C)C(c1ccc(Cl)cc1)=N[C@@H](CC(=O)OC(C)(C)C)c1nnc(C)n1-2 [NCGC00250412-19] | -55.8 |
| COc1cc(N2CCC(N3CCN(C)CC3)CC2)ccc1Nc1ncnc(Nc2ccccc2S(=O)(=O)C(C)C)n1 + Cc1sc2c(c1C)C(c1ccc(Cl)cc1)=N[C@@H](CC(=O)OC(C)(C)C)c1nnc(C)n1-2 [NCGC00250412-19] | -165 |
| Cc1cc(Nc2nc(N[C@@H](C)c3ccc(F)cc3)c(C#N)cc2F)n[nH]1 + Cc1sc2c(c1C)C(c1ccc(Cl)cc1)=N[C@@H](CC(=O)OC(C)(C)C)c1nnc(C)n1-2 [NCGC00250412-19] | -209 |

| Structure (SMILES) | excess over highest single agent |
| --- | --- |
| CC(C)c1ccc2c(c1)c(SC(C)(C)C)c(CC(C)(C)C(=O)O)n2Cc1ccc(Cl)cc1 + Cc1sc2c(c1C)C(c1ccc(Cl)cc1)=N[C@@H](CC(=O)OC(C)(C)C)c1nnc(C)n1-2 [NCGC00250412-19] | -156 |
| CC(C)(Sc1ccc(CCN(CCCCC2CCCCC2)C(=O)NC2CCCCC2)cc1)C(=O)O + Cc1sc2c(c1C)C(c1ccc(Cl)cc1)=N[C@@H](CC(=O)OC(C)(C)C)c1nnc(C)n1-2 [NCGC00250412-19] | -134 |
| CC/C(=C(/CC)c1ccc(O)cc1)c1ccc(O)cc1 + Cc1sc2c(c1C)C(c1ccc(Cl)cc1)=N[C@@H](CC(=O)OC(C)(C)C)c1nnc(C)n1-2 [NCGC00250412-19] | -47.1 |
| Nc1nc(OCc2ccccc2)c2nc[nH]c2n1 + Cc1sc2c(c1C)C(c1ccc(Cl)cc1)=N[C@@H](CC(=O)OC(C)(C)C)c1nnc(C)n1-2 [NCGC00250412-19] | -110 |
| CC1=C(/C=C/C(C)=C/C=C/C(C)=C\C(=O)O)C(C)(C)CCC1 + Cc1sc2c(c1C)C(c1ccc(Cl)cc1)=N[C@@H](CC(=O)OC(C)(C)C)c1nnc(C)n1-2 [NCGC00250412-19] | -323 |
| NC(N)=Nc1nc(CSCC/C(N)=N/S(N)(=O)=O)cs1 + Cc1sc2c(c1C)C(c1ccc(Cl)cc1)=N[C@@H](CC(=O)OC(C)(C)C)c1nnc(C)n1-2 [NCGC00250412-19] | -87.3 |
| COc1ccc(-c2ccc3c(N4CCOCC4)nc(N4C[C@@H](C)O[C@@H](C)C4)nc3n2)cc1CO + Cc1sc2c(c1C)C(c1ccc(Cl)cc1)=N[C@@H](CC(=O)OC(C)(C)C)c1nnc(C)n1-2 [NCGC00250412-19] | -237 |
| OC(CN1CCN(c2cccc(Cl)c2)CC1)C(c1ccccc1)c1ccccc1 (configuration not stated) + Cc1sc2c(c1C)C(c1ccc(Cl)cc1)=N[C@@H](CC(=O)OC(C)(C)C)c1nnc(C)n1-2 [NCGC00250412-19] | -205 |
| O=c1[nH]c2ccc(Cl)cc2c(N[C@@H]2CN3CCC2CC3)c1-c1nc2ccccc2[nH]1 + Cc1sc2c(c1C)C(c1ccc(Cl)cc1)=N[C@@H](CC(=O)OC(C)(C)C)c1nnc(C)n1-2 [NCGC00250412-19] | -88.4 |
| COc1cc(OC)c(/C=C/S(=O)(=O)Cc2ccc(OC)c(NCC(=O)O)c2)c(OC)c1 + Cc1sc2c(c1C)C(c1ccc(Cl)cc1)=N[C@@H](CC(=O)OC(C)(C)C)c1nnc(C)n1-2 [NCGC00250412-19] | -242 |
| CC(C)c1ccc(Cn2ccc3c4c(N)nc(NC5CC5)nc4ccc32)cc1 + Cc1sc2c(c1C)C(c1ccc(Cl)cc1)=N[C@@H](CC(=O)OC(C)(C)C)c1nnc(C)n1-2 [NCGC00250412-19] | -256 |
| CCCCCCCc1ccc(CCc2cccc(O)c2C(=O)O)cc1 + Cc1sc2c(c1C)C(c1ccc(Cl)cc1)=N[C@@H](CC(=O)OC(C)(C)C)c1nnc(C)n1-2 [NCGC00250412-19] | -277 |
| CC(C)(N)C(=O)N[C@H](COCc1ccccc1)C(=O)N1CCC2(CC1)CN(S(C)(=O)=O)c1ccccc12 + Cc1sc2c(c1C)C(c1ccc(Cl)cc1)=N[C@@H](CC(=O)OC(C)(C)C)c1nnc(C)n1-2 [NCGC00250412-19] | -36 |
| Cc1ccc([N+](=O)[O-])cc1S(=O)(=O)N(C)/N=C/c1cnc2ccc(Br)cn12 + Cc1sc2c(c1C)C(c1ccc(Cl)cc1)=N[C@@H](CC(=O)OC(C)(C)C)c1nnc(C)n1-2 [NCGC00250412-19] | -135 |
| CN1CCN(c2c(F)cc3c(=O)c(C(=O)O)cn4c3c2OCN4C)CC1 + Cc1sc2c(c1C)C(c1ccc(Cl)cc1)=N[C@@H](CC(=O)OC(C)(C)C)c1nnc(C)n1-2 [NCGC00250412-19] | -15.3 |
| CCCCCCCCCCCCc1ccc(S(=O)(=O)Nc2nncs2)cc1 + Cc1sc2c(c1C)C(c1ccc(Cl)cc1)=N[C@@H](CC(=O)OC(C)(C)C)c1nnc(C)n1-2 [NCGC00250412-19] | 63.3 |
| C[C@H]1[C@H](C)CC[C@]2(C(=O)O)CC[C@]3(C)C(=CC[C@@H]4[C@@]5(C)C[C@@H](O)[C@H](O)[C@@](C)(CO)[C@@H]5CC[C@]43C)[C@H]12 + Cc1sc2c(c1C)C(c1ccc(Cl)cc1)=N[C@@H](CC(=O)OC(C)(C)C)c1nnc(C)n1-2 [NCGC00250412-19] | 23.2 |
| CN[C@@H]1C[C@H]2O[C@@](C)([C@@H]1OC)n1c3ccccc3c3c4c(c5c6ccccc6n2c5c31)C(=O)N[C@H]4O + Cc1sc2c(c1C)C(c1ccc(Cl)cc1)=N[C@@H](CC(=O)OC(C)(C)C)c1nnc(C)n1-2 [NCGC00250412-19] | -378 |

Two entries drawn at random from the list so far, as already listed:

| Structure (SMILES) | excess over highest single agent |
| --- | --- |
| CC(C)(N)C(=O)N[C@H](COCc1ccccc1)C(=O)N1CCC2(CC1)CN(S(C)(=O)=O)c1ccccc12 + Cc1sc2c(c1C)C(c1ccc(Cl)cc1)=N[C@@H](CC(=O)OC(C)(C)C)c1nnc(C)n1-2 [NCGC00250412-19] | -36 |
| C[C@H]1[C@H](C)CC[C@]2(C(=O)O)CC[C@]3(C)C(=CC[C@@H]4[C@@]5(C)C[C@@H](O)[C@H](O)[C@@](C)(CO)[C@@H]5CC[C@]43C)[C@H]12 + Cc1sc2c(c1C)C(c1ccc(Cl)cc1)=N[C@@H](CC(=O)OC(C)(C)C)c1nnc(C)n1-2 [NCGC00250412-19] | 23.2 |
